Library screen at single concentrations

Amino acid sequences for entries named in this document (tags omitted). Residues count along the entry.
UniProt P9WPC5, whole entry: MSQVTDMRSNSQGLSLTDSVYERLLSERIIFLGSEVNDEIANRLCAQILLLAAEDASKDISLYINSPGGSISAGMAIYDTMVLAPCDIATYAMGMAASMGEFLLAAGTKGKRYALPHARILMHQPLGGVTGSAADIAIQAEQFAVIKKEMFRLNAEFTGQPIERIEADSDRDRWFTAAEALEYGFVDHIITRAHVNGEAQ
UniProt P9WPC3, whole entry partner: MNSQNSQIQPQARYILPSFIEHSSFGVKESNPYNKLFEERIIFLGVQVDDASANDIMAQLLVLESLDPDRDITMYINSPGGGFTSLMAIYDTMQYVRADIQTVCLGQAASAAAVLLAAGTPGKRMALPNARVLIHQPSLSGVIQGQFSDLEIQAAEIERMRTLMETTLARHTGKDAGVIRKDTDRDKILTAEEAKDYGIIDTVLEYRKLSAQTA
UniProt P9WNZ1, whole entry: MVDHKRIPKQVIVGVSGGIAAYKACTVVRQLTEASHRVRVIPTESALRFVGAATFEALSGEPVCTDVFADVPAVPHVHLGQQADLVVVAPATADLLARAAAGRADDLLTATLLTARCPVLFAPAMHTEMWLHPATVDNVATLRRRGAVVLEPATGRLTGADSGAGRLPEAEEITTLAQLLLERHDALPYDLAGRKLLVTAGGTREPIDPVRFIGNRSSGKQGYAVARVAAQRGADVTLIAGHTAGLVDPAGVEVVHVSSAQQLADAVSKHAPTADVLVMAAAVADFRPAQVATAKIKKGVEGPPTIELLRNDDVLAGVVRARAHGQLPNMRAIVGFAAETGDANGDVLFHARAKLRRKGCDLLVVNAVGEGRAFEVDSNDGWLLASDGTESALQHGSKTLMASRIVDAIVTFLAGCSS
UniProt Q8IDJ8, 1-583: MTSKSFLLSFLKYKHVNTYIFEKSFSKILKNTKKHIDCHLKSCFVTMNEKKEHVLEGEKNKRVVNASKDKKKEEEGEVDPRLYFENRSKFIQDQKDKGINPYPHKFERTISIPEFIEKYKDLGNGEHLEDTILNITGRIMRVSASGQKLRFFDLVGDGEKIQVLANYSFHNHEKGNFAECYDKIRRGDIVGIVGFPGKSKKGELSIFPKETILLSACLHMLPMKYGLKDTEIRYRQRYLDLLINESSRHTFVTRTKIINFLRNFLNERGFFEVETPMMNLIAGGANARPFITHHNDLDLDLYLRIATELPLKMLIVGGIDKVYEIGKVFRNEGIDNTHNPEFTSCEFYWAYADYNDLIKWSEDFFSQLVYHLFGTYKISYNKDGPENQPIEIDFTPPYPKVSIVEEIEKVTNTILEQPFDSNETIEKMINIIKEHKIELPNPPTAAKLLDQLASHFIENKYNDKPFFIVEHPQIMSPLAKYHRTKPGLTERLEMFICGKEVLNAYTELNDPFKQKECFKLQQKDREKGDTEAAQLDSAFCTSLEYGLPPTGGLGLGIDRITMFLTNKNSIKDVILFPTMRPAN
UniProt Q4DA54, 1-478: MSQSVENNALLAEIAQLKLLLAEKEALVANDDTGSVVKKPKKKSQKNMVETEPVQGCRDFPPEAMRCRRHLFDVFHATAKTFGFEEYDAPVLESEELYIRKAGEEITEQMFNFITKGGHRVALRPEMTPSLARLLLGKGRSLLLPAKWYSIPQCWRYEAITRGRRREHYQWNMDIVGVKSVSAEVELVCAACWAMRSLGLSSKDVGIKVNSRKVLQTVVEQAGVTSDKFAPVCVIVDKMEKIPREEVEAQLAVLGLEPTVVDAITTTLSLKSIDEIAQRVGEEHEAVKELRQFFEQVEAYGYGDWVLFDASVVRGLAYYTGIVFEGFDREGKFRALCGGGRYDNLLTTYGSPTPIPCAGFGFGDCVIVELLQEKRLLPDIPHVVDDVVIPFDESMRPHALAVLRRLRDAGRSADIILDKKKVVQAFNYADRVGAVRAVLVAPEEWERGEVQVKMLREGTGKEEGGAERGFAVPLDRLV
UniProt I6X8D2, whole entry: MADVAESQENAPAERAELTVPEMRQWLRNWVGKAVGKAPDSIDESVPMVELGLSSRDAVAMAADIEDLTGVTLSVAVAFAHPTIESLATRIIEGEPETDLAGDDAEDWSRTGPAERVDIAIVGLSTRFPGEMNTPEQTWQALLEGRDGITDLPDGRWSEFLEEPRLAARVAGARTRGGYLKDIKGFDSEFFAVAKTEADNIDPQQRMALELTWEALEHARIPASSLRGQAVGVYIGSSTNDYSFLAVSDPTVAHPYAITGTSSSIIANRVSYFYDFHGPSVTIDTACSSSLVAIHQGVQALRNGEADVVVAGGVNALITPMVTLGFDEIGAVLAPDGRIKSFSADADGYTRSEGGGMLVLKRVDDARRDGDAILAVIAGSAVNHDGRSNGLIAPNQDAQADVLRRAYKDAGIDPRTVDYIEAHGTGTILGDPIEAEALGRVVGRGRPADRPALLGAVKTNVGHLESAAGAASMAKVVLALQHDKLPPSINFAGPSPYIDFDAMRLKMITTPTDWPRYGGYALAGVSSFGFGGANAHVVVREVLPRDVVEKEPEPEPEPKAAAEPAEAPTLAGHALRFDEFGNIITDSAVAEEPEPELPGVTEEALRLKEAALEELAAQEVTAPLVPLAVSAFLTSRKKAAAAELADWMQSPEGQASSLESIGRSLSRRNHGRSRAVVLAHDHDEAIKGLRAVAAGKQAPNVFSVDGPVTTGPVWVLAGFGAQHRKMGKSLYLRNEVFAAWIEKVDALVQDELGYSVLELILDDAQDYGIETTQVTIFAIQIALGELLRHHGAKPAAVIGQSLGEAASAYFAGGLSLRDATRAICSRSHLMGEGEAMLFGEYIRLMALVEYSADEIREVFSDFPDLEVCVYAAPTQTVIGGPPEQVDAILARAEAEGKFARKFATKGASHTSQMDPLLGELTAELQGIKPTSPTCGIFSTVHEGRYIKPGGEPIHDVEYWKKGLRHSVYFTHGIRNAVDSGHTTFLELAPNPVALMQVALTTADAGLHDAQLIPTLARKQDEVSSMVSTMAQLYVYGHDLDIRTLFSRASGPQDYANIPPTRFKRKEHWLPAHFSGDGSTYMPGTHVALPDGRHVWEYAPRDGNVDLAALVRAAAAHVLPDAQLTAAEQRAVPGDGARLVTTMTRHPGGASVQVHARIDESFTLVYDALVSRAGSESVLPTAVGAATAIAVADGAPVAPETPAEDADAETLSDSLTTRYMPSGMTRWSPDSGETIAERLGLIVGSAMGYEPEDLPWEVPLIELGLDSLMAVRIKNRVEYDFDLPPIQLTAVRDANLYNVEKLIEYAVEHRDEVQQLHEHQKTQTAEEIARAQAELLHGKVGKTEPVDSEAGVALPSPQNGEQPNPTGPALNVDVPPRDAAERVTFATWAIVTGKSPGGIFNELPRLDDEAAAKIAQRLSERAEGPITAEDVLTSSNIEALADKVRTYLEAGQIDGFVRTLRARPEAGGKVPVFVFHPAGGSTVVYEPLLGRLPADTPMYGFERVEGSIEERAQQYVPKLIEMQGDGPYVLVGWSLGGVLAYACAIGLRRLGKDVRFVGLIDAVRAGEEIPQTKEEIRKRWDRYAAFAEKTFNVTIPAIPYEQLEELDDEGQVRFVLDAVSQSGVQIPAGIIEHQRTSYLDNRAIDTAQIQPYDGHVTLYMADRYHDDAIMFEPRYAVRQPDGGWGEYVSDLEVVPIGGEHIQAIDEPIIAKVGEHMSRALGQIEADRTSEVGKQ

Source: ChEMBL document CHEMBL3988442, “University of Dundee, Small-Polar-MMV Screening Library” (2021).

ClpP1P2: 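ClpP1P2, Mycobacterium tuberculosis (UniProt P9WPC5 and UniProt P9WPC3). Protease assay of ClpP1P2, read by the AMC dye that it sets free. Compounds at 50 µM. Higher reads as stronger inhibition, judged from the few compounds that gave an IC50. Most other retested compounds had strongly negative values. About 69,000 compounds were tested under these conditions; 0.015% (about 10) showed 50% or more at least once.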
CoaBC: 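Enzyme assay of CoaBC with a phosphate dye (Biomol Green) read at 650 nm. Target: Coenzyme A biosynthesis protein CoaBC, Mycobacterium tuberculosis (UniProt P9WNZ1). Tested at 30 µM. Direction is inferred from only a few compounds that gave an IC50; most scored high, so higher reads as stronger inhibition. Most strong results did not repeat in a second test. Size under these conditions: about 67,000 compounds, about 40 of them at 50% or above in at least one test.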
PfKRS1: 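Enzyme assay of the cytosolic lysyl-tRNA synthetase in 384-well plates, read by luminescence. Target: Lysine-tRNA ligase, Plasmodium falciparum 3D7 (UniProt Q8IDJ8). Tested at 30 µM. Direction is inferred from only a few compounds that gave an IC50; most scored high, so higher reads as stronger inhibition. Of about 69,000 compounds tested this way, about 49 (0.071%) reached 50% or more in at least one test.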
TcHisRS: 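Enzyme assay of histidyl-tRNA synthetase; the read-out is not stated. Target: Histidine-tRNA ligase, Trypanosoma cruzi CL Brener (UniProt Q4DA54). Compounds at 30 µM. Direction is inferred from retests: higher values go with stronger inhibition. Size under these conditions: about 69,000 compounds, about 31 of them at 50% or above in at least one test.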
Pks13 thioesterase: 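Polyketide synthase Pks13, Mycobacterium tuberculosis (UniProt I6X8D2). Enzyme assay of the thioesterase domain of polyketide synthase 13; the read-out is not stated. Tested at 30 µM. Higher reads as stronger inhibition (inferred from which compounds were picked for retests). Of about 67,000 compounds tested this way, about 300 (0.46%) reached 50% or more in at least one test.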

Values are the deposited “Percent Effect”, in %.
The record does not define 0% and 100%; most values in the screen are far below 50% and negative numbers occur (in some assays of this library far below -100).
The compounds are a random part of those screened.

| # | SMILES | ClpP1P2 | CoaBC | PfKRS1 | TcHisRS | Pks13 thioesterase |
|---|---|---|---|---|---|---|
| 1 | `CCCN1CCC(c2nc3ccc(-c4ccncc4)cn3n2)CC1` | 19.41% | 0.6188% | -0.3263% | 8.543% | -15.24% |
| 2 | `O=C(NCCN1CCCCC1=O)C1CCC(=O)N(C2CCCC2)C1` (stereo not given) | 5.352% | 1.411% | 1.787% | 5.435% | -19.41% |
| 3 | `COc1ccc(CCC(=O)Nc2ccncc2C)cc1` | 6.306% | 1.24% | 4.033% | 4.046% | -18.75% |
| 4 | `O=C(N[C@@H]1CC[C@@H](N2CCCC2)[C@@H]1O)c1cc2ccccc2[nH]1` | -11.6% | 8.076% | 0.9298% | 10.77% | -4.077% |
| 5 | `CCn1nc(C)c2nc(C(C)C)nc(N3CCCCC3)c21` | -15.91% | -4.091% | -2.276% | 3.347% | -0.9609% |
| 6 | `CC(C(=O)Nc1ccnn1C(C)C)N1CCN(Cc2ccccc2)CC1` (stereo not given) | -2.469% | -2.621% | 1.673% | -1.087% | -15.65% |
| 7 | `CC(C)Cn1c(=O)n(CCn2cc(Cl)cn2)c2cc(C(=O)O)cnc21` | 5.955% | 0.8949% | 3.064% | 9.278% | -6.642% |
| 8 | `CCOCCC(=O)N(C)CC1Cc2ccccc2CN1C` (stereo not given) | -14.36% | 1.988% | 4.966% | 0.5128% | -12.35% |
| 9 | `O=C(NS(=O)(=O)Cc1cc(-c2ccccc2)no1)C1CCOCC1` | -11.36% | 1.242% | 0.1679% | 2.564% | -4.296% |
| 10 | `CC(=O)N(Cc1noc(C2CC2)n1)C1CCN(CC(=O)NC2CC2)C1` (stereo not given) | -24.44% | 5.747% | 1.776% | 4.046% | -1.549% |
| 11 | `CCC(Oc1ccc(N(C)S(C)(=O)=O)cc1)C(=O)N(C)C` (stereo not given) | -9.365% | -3.614% | 0.4999% | 1.064% | -22.6% |
| 12 | `CN(Cc1nc(C2CC2)no1)C(=O)C1COc2ccccc2C1` (stereo not given) | -10.34% | 3.016% | 4.253% | -2.513% | -27.67% |
| 13 | `Cc1cnc(N2CC[C@@H]3O[C@H](COCc4ccccn4)CC[C@@H]32)nc1` | -0.7583% | 6.304% | 2.731% | 14.29% | -22.22% |
| 14 | `Cc1cccc(-n2cc(C(=O)N3CCCC(n4ccnc4)C3)nn2)c1` (stereo not given) | 22.84% | 7.436% | -0.2837% | -1.132% | -27.53% |
| 15 | `CN(C)C(=O)NCc1ncn2c1CN(S(C)(=O)=O)CCC2` | 1.649% | 10% | 4.175% | 0.5348% | -17.52% |
| 16 | `O=C(C1CCC1)N1CCC(=O)N(C2CC2)Cc2cc(F)ccc21` | 9.658% | 1.453% | 5.325% | 6.742% | 3.09% |
| 17 | `CN(Cc1ccsc1)C(=O)c1ccc(S(=O)(=O)NC(C)(C)C)cc1` | -9.343% | 3.106% | 0.899% | 4.571% | -9.29% |
| 18 | `O=c1ccc2c(n1Cc1cccnc1)CCN(C1CCOC1)CC2` (stereo not given) | -9.947% | -1.025% | 5.109% | 6.897% | -4.493% |
| 19 | `O=C(c1cccnc1O)N(Cc1cccs1)CC1CCCO1` (stereo not given) | -23.97% | -0.2439% | 0.4292% | -0.9804% | 17.41% |
| 20 | `Cc1ccc(S(=O)(=O)N2CSCC2C(=O)N(C)C2CC2)cc1Cl` (stereo not given) | -5.023% | -2.643% | 3.523% | 0.8475% | -233% |
| 21 | `Cc1cccc(C(C(=O)NCCc2nc(C)cc(=O)[nH]2)N(C)C)c1` (stereo not given) | -14.02% | 6.909% | 2.095% | 2.041% | 8.062% |
| 22 | `Cc1ccc(CNC(=O)CCN2CCOC(C(F)(F)F)C2)cc1` (stereo not given) | -17.81% | 11.97% | -3.328% | 3.784% | -31.84% |
| 23 | `CC(C)n1[nH]c(=O)c2c1NC(=O)CC2c1cccc(Br)c1` (stereo not given) | -14.08% | 0.2554% | 3.67% | 4.848% | -8.203% |
| 24 | `N#Cc1ccc(N2CCCC2Cn2cccn2)nc1` (stereo not given) | -0.001782% | 16.27% | -1.369% | -1.064% | -25.62% |
| 25 | `O=C1CC(C(=O)Nc2nnc(-c3cccs3)[nH]2)c2ccccc2N1` (stereo not given) | -5.344% | 7.559% | 3.133% | -1.02% | -25.85% |
| 26 | `O=C(NC1CCC1)C1=NOC2(CCN(Cc3ccccc3)C2)C1` (stereo not given) | 7.931% | -7.983% | 6.845% | 0.8264% | -3.365% |
| 27 | `CN(C)C(=O)CN1CCC2(CCN(Cc3nccs3)CC2)C1=O` | 18.9% | 4.442% | -5.505% | -0.5405% | 3.187% |
| 28 | `Cc1noc(C(C)C)c1C(=O)NCCCN1CCNCC1` | -2.382% | 0.9558% | 2.863% | 2.857% | -18.02% |
| 29 | `CCOc1ccc(NCC(=O)NCC(=O)N2CCCC2)c(C(F)(F)F)c1` | -10.29% | 3.753% | 3.516% | 9.901% | -5.262% |
| 30 | `Cc1cccc(-c2nc(CN3CCc4cnc(C)nc4C3)no2)c1` | -6.277% | 2.892% | 4.185% | 9.924% | -8.732% |
| 31 | `CC(Cc1cccs1)NC(=O)CCn1cccn1` (stereo not given) | -13.96% | 3.655% | 0.7445% | 4.52% | -1.852% |
| 32 | `Fc1cccc(Cl)c1CNCCCOc1ccccn1` | 2.782% | -14.06% | 4.757% | 11.92% | -1.528% |
| 33 | `Cc1ccc(N2CCCC(N(C)c3ncnc4c3CCC4)C2)nn1` (stereo not given) | 9.044% | 8.557% | 3.717% | 3.093% | 0.01207% |
| 34 | `CN(CC1CC1)C(=O)CN(Cc1cccc(O)c1)C1CCC(O)CC1` (stereo not given) | -13.17% | 7.489% | 4.39% | -1.695% | -12.24% |
| 35 | `O=C(NCc1cccs1)C1CCN(c2cc(-n3ccnc3)ncn2)CC1` | -0.9247% | 1.903% | 7.956% | 5.155% | -7.315% |
| 36 | `Cc1ccc(S(=O)(=O)N2CC[C@@H]3C[C@H](NC(=O)c4n[nH]cc4Cl)[C@@H]32)cc1` | 1.661% | -4.545% | -0.05695% | 1.149% | -19.46% |
| 37 | `CN(CCCc1cnn(C)c1)C(=O)C1CCN(C(=O)C2CCC2)CC1` | -0.8833% | 0.9804% | 6.144% | 9.524% | -37.29% |
| 38 | `CC(=O)N[C@@H]1C[C@H](c2ccc(OCCO)cc2)OC2(CCOCC2)C1` | 6.335% | 2.843% | -0.04558% | 3.042% | -2.364% |
| 39 | `c1cnn(CC2CN(c3ncnc4c3CCC4)CCO2)c1` (stereo not given) | -3.481% | 6.774% | 6.649% | 7.389% | -27.31% |
| 40 | `O=C(Cn1cc(-c2ccccc2)ncc1=O)Nc1ccncc1` | -98.29% | 4.386% | 0.5132% | 4.132% | -12.83% |
| 41 | `COCC(O)CN1CCC(=O)N(CC2CC2)Cc2ccccc21` (stereo not given) | 2.054% | -1.695% | 5.88% | 6.742% | 4.687% |
| 42 | `CCc1nc(CC(=O)N2CCN(c3cnccn3)CC2)cs1` | 7.108% | -2.089% | 0.8952% | 1.88% | 6.269% |
| 43 | `CC(C)OCCNC(=O)C1CCC(=O)N(C2CCCC2)C1` (stereo not given) | -2.236% | 5.444% | 1.467% | 1.087% | -22.43% |
| 44 | `O=C(O)c1c[nH]c2cc(NS(=O)(=O)c3cc(F)ccc3Cl)ccc12` | -28.48% | 2.151% | -0.9129% | -14.29% | -4.447% |
| 45 | `Cc1cccc(CN2C(=O)C[C@@H]3[C@@H]2CCN3Cc2ccsc2)n1` | -8.475% | -1.647% | 4.194% | 4.327% | -12.28% |

For reference, 3 entries once more:

- CC(=O)N(Cc1noc(C2CC2)n1)C1CCN(CC(=O)NC2CC2)C1 (stereo not given) | ClpP1P2: -24.44%; CoaBC: 5.747%; PfKRS1: 1.776%; TcHisRS: 4.046%; Pks13 thioesterase: -1.549%
- CC(=O)N[C@@H]1C[C@H](c2ccc(OCCO)cc2)OC2(CCOCC2)C1 | ClpP1P2: 6.335%; CoaBC: 2.843%; PfKRS1: -0.04558%; TcHisRS: 3.042%; Pks13 thioesterase: -2.364%
- O=C(O)c1c[nH]c2cc(NS(=O)(=O)c3cc(F)ccc3Cl)ccc12 | ClpP1P2: -28.48%; CoaBC: 2.151%; PfKRS1: -0.9129%; TcHisRS: -14.29%; Pks13 thioesterase: -4.447%